Tested on: human iPSC-derived platelets
Assay: Covalent conjugation of Ipilimumab to human iPSC-derived platelets
Type: cell-based

In the case of “Ipilimumab-conjugated platelets: human iPSC-derived platelets covalently conjugated with Ipilimumab”, the “CD61 expression after conjugation” value is reported as “retained CD61 expression”.

From patent US12496315B2, “Compositions for drug delivery and methods of use thereof” (Stellular Bio, Inc., priority 2018, dated 2025)
